No constants are given. Whether binding was seen depends on the method and setting. In cells and extracts the contact can be indirect. A yes stands for co-enrichment or nearness to the bait. Other partners may have been found. For some of these results: A no says only that the protein was not detected with the bait. Sequences can lack the tags named with a protein.
Columns and labels:
[1] = target: T1, HA-AFF4 (1–300) (human) (UniProt Q9UHB7); assay: affinity purification with mass spectrometry; HEK293T expressing HA-AFF4 (full length or 1-300); lysate in 0.15% Triton X-100, 20 mM Tris-HCl pH 7.6, 200 mM NaCl, 0.72 mM EDTA, 10% glycerol; IP with anti-HA antibody and protein A beads at 4 °C; bands excised from SDS-PAGE, tandem MS; control cells without HA-AFF4
T1 sequence: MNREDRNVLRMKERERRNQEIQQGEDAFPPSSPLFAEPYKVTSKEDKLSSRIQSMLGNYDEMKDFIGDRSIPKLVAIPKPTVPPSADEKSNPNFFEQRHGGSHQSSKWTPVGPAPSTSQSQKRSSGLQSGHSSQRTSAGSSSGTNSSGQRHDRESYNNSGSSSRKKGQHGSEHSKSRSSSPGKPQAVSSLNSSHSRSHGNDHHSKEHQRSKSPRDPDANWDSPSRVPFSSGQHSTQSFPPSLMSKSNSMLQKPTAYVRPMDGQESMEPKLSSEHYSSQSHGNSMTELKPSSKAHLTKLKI

Sequences of proteins named here, by UniProt entry; tags and fusion partners are left off.
UniProt P50750: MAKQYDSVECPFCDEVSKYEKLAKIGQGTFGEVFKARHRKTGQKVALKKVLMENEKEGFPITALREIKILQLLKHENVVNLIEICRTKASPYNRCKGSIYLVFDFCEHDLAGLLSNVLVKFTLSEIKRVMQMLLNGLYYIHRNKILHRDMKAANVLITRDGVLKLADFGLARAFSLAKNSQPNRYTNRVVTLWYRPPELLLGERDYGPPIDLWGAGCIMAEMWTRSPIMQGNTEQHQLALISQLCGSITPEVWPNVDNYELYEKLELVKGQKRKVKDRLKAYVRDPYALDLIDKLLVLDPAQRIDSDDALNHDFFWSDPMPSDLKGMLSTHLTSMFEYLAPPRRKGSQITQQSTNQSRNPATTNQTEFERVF
UniProt P35637: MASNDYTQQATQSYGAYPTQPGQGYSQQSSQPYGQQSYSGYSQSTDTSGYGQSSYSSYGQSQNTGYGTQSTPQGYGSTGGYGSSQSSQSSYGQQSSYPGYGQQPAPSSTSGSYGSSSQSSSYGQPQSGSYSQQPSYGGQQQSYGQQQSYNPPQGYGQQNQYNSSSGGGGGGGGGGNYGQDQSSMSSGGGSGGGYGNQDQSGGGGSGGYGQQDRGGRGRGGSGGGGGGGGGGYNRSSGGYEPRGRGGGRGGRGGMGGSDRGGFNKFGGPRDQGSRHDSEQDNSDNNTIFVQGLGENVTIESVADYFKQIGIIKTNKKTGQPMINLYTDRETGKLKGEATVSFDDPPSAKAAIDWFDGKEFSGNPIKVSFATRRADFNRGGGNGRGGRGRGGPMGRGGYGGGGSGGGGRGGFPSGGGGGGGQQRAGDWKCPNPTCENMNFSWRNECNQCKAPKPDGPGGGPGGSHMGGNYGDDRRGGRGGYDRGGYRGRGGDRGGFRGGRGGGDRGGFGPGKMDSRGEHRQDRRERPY

[2] = target: T2, full length HA-AFF4 (1–1163) (human) (UniProt Q9UHB7); assay: as above
T2 sequence: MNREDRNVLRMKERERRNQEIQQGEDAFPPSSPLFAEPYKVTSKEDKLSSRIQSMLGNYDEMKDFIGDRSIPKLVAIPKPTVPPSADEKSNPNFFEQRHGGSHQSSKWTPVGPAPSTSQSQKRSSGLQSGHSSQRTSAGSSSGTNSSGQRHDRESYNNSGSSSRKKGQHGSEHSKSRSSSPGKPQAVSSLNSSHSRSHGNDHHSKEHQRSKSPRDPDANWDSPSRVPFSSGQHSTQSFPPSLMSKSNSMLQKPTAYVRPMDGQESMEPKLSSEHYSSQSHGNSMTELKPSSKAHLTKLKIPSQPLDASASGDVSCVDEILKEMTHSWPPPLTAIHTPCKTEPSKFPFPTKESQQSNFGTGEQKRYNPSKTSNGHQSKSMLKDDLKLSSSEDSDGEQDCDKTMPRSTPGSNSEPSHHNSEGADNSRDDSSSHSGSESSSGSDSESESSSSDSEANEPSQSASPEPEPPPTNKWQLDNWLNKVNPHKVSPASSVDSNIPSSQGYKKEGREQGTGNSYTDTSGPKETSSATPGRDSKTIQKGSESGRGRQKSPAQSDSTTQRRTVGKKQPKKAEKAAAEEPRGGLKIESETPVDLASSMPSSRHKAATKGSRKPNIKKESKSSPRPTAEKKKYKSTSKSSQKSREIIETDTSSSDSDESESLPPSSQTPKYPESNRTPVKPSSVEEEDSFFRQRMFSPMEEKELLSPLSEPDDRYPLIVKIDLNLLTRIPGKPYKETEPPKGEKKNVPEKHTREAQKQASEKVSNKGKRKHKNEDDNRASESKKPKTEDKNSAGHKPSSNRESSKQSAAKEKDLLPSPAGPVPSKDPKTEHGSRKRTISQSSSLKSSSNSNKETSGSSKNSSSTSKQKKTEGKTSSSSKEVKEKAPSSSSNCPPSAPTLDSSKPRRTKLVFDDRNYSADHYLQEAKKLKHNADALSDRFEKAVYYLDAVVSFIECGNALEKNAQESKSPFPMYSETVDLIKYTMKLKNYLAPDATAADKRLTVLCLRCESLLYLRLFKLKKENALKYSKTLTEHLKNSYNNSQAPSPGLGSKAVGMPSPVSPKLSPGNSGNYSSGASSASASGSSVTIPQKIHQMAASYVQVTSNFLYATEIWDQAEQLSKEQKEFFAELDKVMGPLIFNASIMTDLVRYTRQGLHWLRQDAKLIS

Row | binding [1] | binding [2] | Substance
1 | binds | binds | Cdk9 (endogenous, HEK293T) (from UniProt P50750 1-372)
2 | no binding | binds | Fused in Sarcoma, FUS (endogenous, HEK293T) (from UniProt P35637 1-526)

— paper PMC6593535
